Laboratory results reported in patent US20220202864A1.
No constants are given. Whether binding was seen depends on the method and setting. Some results given as binding are weak or reduced against the parent protein; the word gives no strength.

Amino acid sequences for entries named in this document (tags omitted). A change or cut given only in a name is not applied to a line headed by its entry. Residues count along the entry.
UniProt Q02223, residues 1-54: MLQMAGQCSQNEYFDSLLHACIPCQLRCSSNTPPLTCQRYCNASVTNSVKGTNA
UniProt P01644: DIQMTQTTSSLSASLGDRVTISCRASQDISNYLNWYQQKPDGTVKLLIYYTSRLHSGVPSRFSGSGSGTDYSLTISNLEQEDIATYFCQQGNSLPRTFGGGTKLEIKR

Target: BCMA antigen (UniProt Q02223)
Experiment: flow cytometry, dual CAR-T cells stained with BCMA antigen

binding: binds
Substance: CAR-J4 (from UniProt P01644 1-106)
